Paper PMC11651612
No constants are given. Whether binding was seen depends on the method and setting. Binding seen in cells or lysates may run through a third protein. Here binding means that the protein was enriched with, or labelled near, the bait; the list need not be complete.

T1: Cdc10-mCherry (C. neoformans) (UniProt J9VMT9)
T1 sequence: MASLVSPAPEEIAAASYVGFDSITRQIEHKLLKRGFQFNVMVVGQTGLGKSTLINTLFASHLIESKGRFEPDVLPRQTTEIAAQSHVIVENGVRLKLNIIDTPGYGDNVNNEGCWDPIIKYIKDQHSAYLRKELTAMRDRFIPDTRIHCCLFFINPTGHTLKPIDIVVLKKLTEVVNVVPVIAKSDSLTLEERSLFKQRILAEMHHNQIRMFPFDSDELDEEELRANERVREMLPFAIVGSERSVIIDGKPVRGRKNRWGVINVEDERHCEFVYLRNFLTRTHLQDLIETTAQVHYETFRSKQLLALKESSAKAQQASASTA

T2: Cdc3-mCherry (C. neoformans) (UniProt J9VUF2)
T2 sequence: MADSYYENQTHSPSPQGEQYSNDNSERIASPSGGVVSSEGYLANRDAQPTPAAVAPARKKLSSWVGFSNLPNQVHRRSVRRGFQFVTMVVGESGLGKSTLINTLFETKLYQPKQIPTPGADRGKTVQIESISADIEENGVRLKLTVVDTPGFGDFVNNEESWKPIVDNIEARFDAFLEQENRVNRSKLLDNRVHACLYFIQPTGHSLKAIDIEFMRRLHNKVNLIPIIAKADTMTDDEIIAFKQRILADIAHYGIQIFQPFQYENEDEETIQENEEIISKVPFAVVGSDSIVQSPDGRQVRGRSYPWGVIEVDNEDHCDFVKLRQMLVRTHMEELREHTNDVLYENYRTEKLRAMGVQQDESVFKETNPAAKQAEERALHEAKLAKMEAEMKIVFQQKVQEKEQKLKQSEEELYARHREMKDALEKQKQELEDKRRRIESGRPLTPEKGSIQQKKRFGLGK


How the values were obtained:
[1] = target: T1, Cdc10-mCherry (C. neoformans); assay: affinity purification with mass spectrometry; mCherry-tagged septin captured from C. neoformans lysate on RFP-Trap agarose, 4 h at 4°C, washed with TBS with 2 M urea pH 7.5; GeLC-MS/MS; untagged H99 as negative control; hits logFC >2 and adjusted p <0.001 (text-named hits <0.05); exponential cultures at ~25°C or shifted to 37°C for 2 h; N = 5
[2] = target: T2, Cdc3-mCherry (C. neoformans); assay: as above
[3] = target: T2, Cdc3-mCherry (C. neoformans); assay: affinity purification with mass spectrometry

Binder	binding [1]	binding [2]	binding [3]
RRM domain-containing protein (protein, UniProt J9VPN4 1-749) MYNGQPPFPGNGLPPFPPQMAPNGAMPAGFPPFAPPFPPPFPGMRPPSGPGILSPATPGMMPSPAPMSGMQTPGMPFRPPPMGYAPRPAHPGLGSTPHGLPQPPHMSPSTPKPDVKTTKVFVGGIAPGITDETLESLLNACGPLHELKRVIGASGKPQAFGFAMFENPEVVLRCIRCLNGVELPDMTPEGRRDRKPTKKLIVKADEKTQAFLEEFESTLGRSDSDEEADASTRKSVQHIIALLTDPNAQHPDGPSAGNNGGQSPVQVVVPAHLQDLQEGDLPEEQRVAVLGQIAVFRENAAKREREKKLMEEEKERYKAMQSQGGGQRQAPSGYGYGNRGLAKQQQQAERQWGAQSASPAPGKGAGPSRHGPGERDPQAYDKPVSFVKAETTEGKAESGRTDEEEEEFRRRKIQMDKDIALRDAERRVEARERARLDALSREMNYRQTQKDLIARSRARQEELYARYDDDDYIERSERERDRRDRPDRERDVRELFYVDRAQWRARRQKFRQNEYQADLRDRQHEEDERQALERESEEFLKKQMAELAALEQSQRAKGLLTEDAAPIKLAINPSTLPAPPPKEEKKHVIAPRPGVQFEGEDDDEESGRKKKGTFVRLDEEEEGDGLSEAEKRARRNARLLDVKKGVPSDRRSIWKFPVEWAAVGETLVQNKIKPFVHQKIKNFLGELDEDLADFVLEHLRDRKGANDLVDGLEPILAEDAESFVLQLWRQLIFESLAFREGIDTGSMMI	binds	binds	–
Mucin (protein, UniProt J9VZG4 1-440) MAANHGVFFHPAQPLSSPTTPLFTPSRKRRAASPPLDSDPLSPWQQSGSQTSFTETPHREKRRRPNLANGFSSLSISPTATQSTPVPDQPRADDDDEGIGPSVYPRNDDVKVEVLPDNTNRLSTHQHPSHRPHTRQWDPYHARPPSSSSSASPTTSTDETYDSDATFTRNLPHIKRYDGIAQQADEIVQPDGSSMFTGPDLGVEDVTGIPSPLRTRRPREEDIEGMEHAGKKRRGNEMEMDIDMSTMDENTEDASVEEKDKLRGRKTVWYEPEKDRIVITSLSDSDSRSSRSPSPETEGRYLSQPGEQGFTISPSLLTHLMNVHRSGDLKGPLQDLLKNNQKSLTLYRPLGIPADRWKESIVKTWEEARNYDDSARFEEIDDAEDFGNNVPSTGNGSEVMDIEGTVPAWQGGAWNTGEAGMGEGGAVSGDGDVDMAMDVE	–	–	binds
Regucalcin (protein, UniProt J9VZC5 1-314) MIKKFVVDKPLLELNGTLGEGCVWDTRIQRLYFVDIDQYKLYTYEPSSGKYGYETFDKKVTALASLESGEGLIAAVEDGFAYISFDSLPFPPTSSKQSLIPIPSGASLSSKEKRFNDGAVDPAGRFLAGTLGFEHGSKDGKMYSLQAEKDGSYSAPLILDGITCTNGMGWTEDAKTVYFTDSWIKEIAKFDYDITTGKLSNRRVFSNIDGYGEPDGMCIDSEGGIWTCRWASGKILRLTPDGEIDVEIDFPTAWHITCCIFGGENLDELYVTSAASDYIGDNLPDRKNGGDLFVVKGLGFKGIERDRFKGTIPK	–	–	binds
Uncharacterized protein (CNAG_01796) (protein, UniProt J9VUS1 1-327) MSTTKQVNQAPAETANALVPEATPSSEEAKKMFKTEEPVSEAVAPNITEPAVKEQFTVADIEAGTAQPRPELVNKVDNAEADNEGTKTEEGAKNTGEVPKPAETKDGKKEVKKSAVKEKTEKTKAEGKNFFAKFFGNKDKFPKKEKKKTPKAEKADPVIAAAPLETKGDNAAPQSVPTTSEPVVDTSAPIEAAEPAVKSPETEAPKGIDASTAVNGPAETAGAPEENKIEDKKDEAKDHAAKPNLKAHRRLSARIGDIFKPKKKEGIPTSSEEISKEEATEPHNEEAPVVASEAPKLEEPVATAPLKLEEEPKATQSSAAAPVAASA	–	–	binds
Sorting nexin-4 (protein, UniProt J9VYM9 1-493) MDQDGFHSIAWDDAPSSNPPLSGPSPSQSPFEEGFESISPSSAQLPISEQYEGYDNPKAGGAGEVAVALDRRERLGGHEVDGSIWNGKWMDVQVREPAKEHEGSKDMYVSYAVKTETSLPTFRKPLTVVRRRFQDFVFLREHLVKNFPACVVPPIPDKHRLEYIKGDRFSPEFVERRRLDLQRFADRIARHPTLQRSQLVNDFLQSTEWSVAKHHHISHPPPESHTSLIDSLSDTFINAFSRVRKPDARFVEMTEELERFEEGLTGVERVVGRGKSRVDDLAADYQDMAAAYQGLGYLESGITEPLNRFAEKMLDFSTLLKHMNNTTIEPFLSSSHSLLSYSATHRNVIKLRDQKQLDFEELSAYLSAIVSERDRLAALSSGHTAAPVGLGTYLRDQVDKLRGTDDIHTRRERMRKMDGKIRELQDAVTLAHETSNAFSEEVIKEHAYFELEKKQEMKDALQAYADGQVEMLQQAMDDWDRIIPLLQRIRVDV	–	–	binds
Myosin I binding protein (protein, UniProt J9VN96 1-1419) MSYPYLARTTLKYKSPHATDLSFAKGDTIRVTGQSPEDEDWLVGETLDGSHAGGFPKDFVEAIDEGTAEPTENESKTAGNTAQQLQPVTQDSSKESEPPNVLSETDPKAGEVRSELDTGSSEAQAPPQAPAPAPISASQSESHDDDAPRPQSMKDRLAFFTAAQNKPAPPPPVKPKPAAGGLTWSQRQKLRQEQEAKEKEGTAAASPVTSTPIAPSATLVPETKPSDNTESKEEQGAAMSAADALTSISKGGSLKERMAALQGVGAFGGAEKKPPPPPPTGKVWKRPAVQEKEPEPQGETEAEKPSSSDTGLAHEPLSSSDEPREVESISKDDDVAKEEETEEEQEKARRAAIAARMAKLGARGPMGMMPPAKPVKKPTRETTTTAEDKSSSTSAAAFPSEAGPGGDTGQIAEAPSIDSKPSATSSKPESVSSPADAPATAPPKSIPIPAMPRRTIGPRRRTHTSSANPSSDDVSTPPAETHPVPLPPAESSVSQDVAAPADAEAEPHDRLETINSEGHPVPPKQMMVYDEEAPLQKTEEQIRQEQEAEERGRGIGGLEGAEAAGIAVDETDEARGELVGRQDEPQASQDDMASVDEQPPTGGNREDVMSFAPGEGLQASESTPAHAAAEDDIPGGKVEMDTVPLHPPADEGLSSEEDDAPPPPPRRGTMTMEGMPLDELEKKHLQDAGEEPPIESPISSPETHEEEAEAEEEEEEEEEEEGAPLPPPRRSLDRPGGSYPLPPVRSSVSAHDAAPDVPPENLTSLATESRPTEARAQASRSPSPPLGATHPRDEDLEEGTSEKLDQEGSEMGSEGGDVGGEEVPRVPPPPSRIRKATSPVELREEEESPTSPVSADRETPHRPDVPVEETREPSGTRAVEETAAVPQGDEEDAARRSGIAARMAKLGGIKFGIPPPHPIKTHSVDTATADPDSVPNRSENLSPVEKEPPPAAAVVSAEPEQPERGEGEVASSEEEETPEQEAARRRATLARLRAGGALGFGMFNQPTQMEPEEVEEKEEEAAGEEGRASALEERGPPPLPLGRPGQGIPLSTNEDVGAKEEQQEQEQVEVQDDEAEDEAQVEDVAPPPPPARPVINTMYGEGDARASSQIVPPPARPAVAPPGSAAVPFSPVDPSGMSRSPTEREEGDDTFGTDAPAPAPAPPLQQRDYIVGEENEEGNPPPPPPPRAGGHRMSVHGEPERGASMSEAAPASQLRMSPEPFSAGGFVAAPSSQTMNPKEQSRDNEDVPVSLGRHGSVRQGTRPGYDQLKEASATYGQGLAKVARGIFAQGKKGFYGDGSPLGFVSVVMDNARVSRPSEDTWGQVIFEQEAGSILRRYDEPRPGDIAAFYDAKLKGKKGLHTYTQHVGSVEEPLVGVVSEFEDRKHKVRVLQVERGVPDEVSYRCEDLKSGKVVVFRAGI	–	–	binds
Copper chaperone (protein, UniProt J9VUN4 1-102) MAAPGTIITSTPGAIPTGPAYQYSVKMTCTGCSGAINRVLGKNITAPNAYHISLPKQLVLVWGPSLPPFETVTEKIAKTGKTINAKEVVEDASTLPALEAAA	binds	binds	–
